Among the data in the supplement of paper PMC12873370 are cell viability values, retold here.

“And” between values parts separate entries of the source, which are not always exact repeats. Equal entries are not always repeated. Some of the results follow. Most values come without repeats; read them as rough.

In assay [1] the test system is MEPP (mouse ovarian epithelium Trp53/Pten KO). The assay is described as follows: cell viability relative to untreated (fraction); higher = less growth inhibition. The conditions noted are these: 5 µM; 3 days.
Assay [2] relates to PREPP (mouse prostate epithelium Trp53/Pten KO). Described as above. The conditions noted are these: 5 µM; 3 days.

For the compound `OC1COC(O)C(O)C1O` (centres undefined), the figures for the cell viability in assay [1] and in assay [2] were 1.21 and 0.986, respectively.

In the case of `COc1ccc(-c2oc3c(CC=C(C)C)c(O[C@@H]4O[C@H](CO)[C@@H](O)[C@H](O)[C@H]4O)cc(O)c3c(=O)c2O[C@@H]2O[C@@H](C)[C@H](O)[C@@H](O)[C@H]2O)cc1`, the cell viability is 1.05 in assay [1] and 0.929 in assay [2].

With `COC1=C(OC)C(=O)C(CCCCCCCCCCO)=C(C)C1=O`, the cell viability worked out at 0.933 in assay [1] and 0.939 in assay [2].

For `C=C(OP(=O)(O)O)C(=O)O`, the values for the cell viability in assay [1] and in assay [2] were 0.906 and 0.871, respectively.

As to `O=c1c(O)c(-c2ccccc2)oc2ccccc12`, the cell viability was determined as 0.938 in assay [1] and 0.936 in assay [2].

As for `CC[C@H](C)[C@@H]1NC(=O)[C@H](Cc2ccc(O)cc2)NC(=O)[C@@H](N)CSSC[C@@H](C(=O)N2CCC[C@H]2C(=O)N[C@@H](CC(C)C)C(=O)NCC(N)=O)NC(=O)[C@H](CC(N)=O)NC(=O)[C@H](CCC(N)=O)NC1=O`, the cell viability in assay [1] stood at 0.827; in assay [2], 0.929.

With `O=C(O)c1ccc(O)c(O)c1`, the cell viability in assay [1] came to 0.953; in assay [2], 0.915.

For `C[C@]1(OC(=O)/C=C/c2ccccc2)C[C@@H](O)[C@]2(O)C=CO[C@@H](O[C@@H]3O[C@H](CO)[C@@H](O)[C@H](O)[C@H]3O)[C@@H]21`, the cell viability in assay [1] was 1.32; in assay [2], 0.882.

Consider `Nc1nc2c(ncn2COCCO)c(=O)[nH]1`, for which the results for the cell viability in assay [1] and in assay [2] were 1.03 and 0.984, respectively.

On to `CC(O)Cn1cnc2c1c(=O)n(C)c(=O)n2C` (centres undefined), for which the cell viability in assay [1] was 0.853; in assay [2] it was 0.862.

In the case of `Cc1c(C)c2c(c(C)c1O)CC[C@@](C)(CCC[C@H](C)CCC[C@H](C)CCCC(C)C)O2`, the cell viability in assay [1] worked out at 1.37; in assay [2], 0.993.

Regarding `CC(C)=CCC[C@](C)(O[C@@H]1O[C@H](CO)[C@@H](O)[C@H](O)[C@H]1O)[C@H]1CC[C@]2(C)[C@@H]1[C@H](O)C[C@@H]1[C@@]3(C)CC[C@H](O)C(C)(C)[C@@H]3[C@@H](O[C@@H]3O[C@H](CO)[C@@H](O)[C@H](O)[C@H]3O[C@@H]3OC[C@@H](O)[C@H](O)[C@H]3O)C[C@]12C`, the cell viability in assay [1] was determined as 1.07; in assay [2], 1.03.

Regarding `C[C@@H]1[C@H]2[C@H](O[C@@H]3O[C@H](CO)[C@@H](O)[C@H](O)[C@H]3O)OC=C(C(=O)O)[C@H]2C[C@@H]1O`, the cell viability in assay [1] was determined as 1.2; in assay [2], 0.883.

As for `C[C@H](CCC(=O)O)[C@H]1CC[C@H]2[C@@H]3CC[C@@H]4C[C@H](O)CC[C@]4(C)[C@H]3C[C@H](O)[C@]12C`, the cell viability in assay [1] is 0.863 and 1.09; in assay [2], 0.77 and 0.933.

Take `C[C@@H](N)C(=O)O`: the values for the cell viability in assay [1] and in assay [2] were 0.958 and 0.97, respectively.

With `CC1(C)O[C@H]2CC(=O)OC[C@]23[C@H]2CC[C@@]4(C)[C@H](c5ccoc5)OC(=O)[C@H]5O[C@]54[C@]2(C)C(=O)C[C@@H]13`, the cell viability in assay [1] worked out at 1.12; in assay [2] it was 0.922.

Turning to `CCC(O)C(=O)O` (centres undefined), the results for the cell viability in assay [1] and in assay [2] were 0.897 and 0.855, respectively.

With `C[C@H](CCC(=O)O)[C@H]1CC[C@H]2[C@@H]3C(=O)C[C@@H]4CC(=O)CC[C@]4(C)[C@H]3CC(=O)[C@]12C`, the cell viability in assay [1] worked out at 0.9; in assay [2], 0.962.

With `Nc1nc2n[nH]nc2c(=O)[nH]1`, the cell viability turned out to be 0.532 in assay [1] and 0.324 in assay [2].

For the compound `CNC[C@H](O)c1ccc(O)c(O)c1`, the cell viability in assay [1] was 0.929 and 1.16; in assay [2], 0.931 and 0.92.

As for `N=c1ccn2c(n1)O[C@H]1[C@H](O)[C@@H](CO)O[C@H]12`, the cell viability stood at 0.599 in assay [1] and 0.887 in assay [2].

As for `CO/N=C(\C(=O)N[C@@H]1C(=O)N2C(C(=O)O)=C(C)CS[C@H]12)c1csc(N)n1`, the cell viability in assay [1] was found to be 1.23; in assay [2], 1.

Turning to `O=Cc1ccc(OC2OC(CO)C(O)C(O)C2O)cc1` (centres undefined), the cell viability in assay [1] was 0.934; in assay [2], 1.02.

`C[C@]12CC[C@@H]3c4ccc(O)cc4CC[C@H]3[C@@H]1CCC2=O`: the cell viability in assay [1] amounted to 1.1; in assay [2] it was 0.86.

As for `CC1(C)CC[C@]2(C(=O)O)CC[C@]3(C)C(=CC[C@@H]4[C@@]5(C)CC[C@H](O)C(C)(C)[C@@H]5CC[C@]43C)[C@@H]2C1`, the cell viability worked out at 1.06 in assay [1] and 1.37 in assay [2].

With `COc1ccc([C@@H]2CC(=O)c3c(O)cc(O[C@@H]4O[C@H](CO[C@@H]5O[C@@H](C)[C@H](O)[C@@H](O)[C@H]5O)[C@@H](O)[C@H](O)[C@H]4O)cc3O2)cc1O`, the cell viability in assay [1] came out at 0.933; in assay [2] it was 1.48.

Regarding `C#C[C@]1(O)CC[C@H]2[C@@H]3CCc4cc(O)ccc4[C@H]3CC[C@@]21C`, the cell viability came to 1.16 in assay [1] and 0.914 in assay [2].

Take `O=C(O)c1ccc(O)c(O)c1O`: the cell viability in assay [1] is 0.886; in assay [2], 0.982.

Regarding `C=C(NC(=O)C(=C)NC(=O)c1csc(C2=N[C@@H]3c4csc(n4)[C@H]4NC(=O)c5csc(n5)[C@H]([C@](C)(O)[C@@H](C)O)NC(=O)[C@H]5CSC(=N5)/C(=C/C)NC(=O)[C@H]([C@@H](C)O)NC(=O)c5csc(n5)[C@]3(CC2)NC(=O)[C@H](C)NC(=O)C(=C)NC(=O)[C@H](C)NC(=O)[C@H]([C@@H](C)CC)N[C@@H]2C=Cc3c([C@H](C)O)cc(nc3[C@H]2O)C(=O)O[C@@H]4C)n1)C(N)=O`, the results for the cell viability in assay [1] and in assay [2] were 0.575 and 0.619, respectively.

Take `CCCCCOc1ccc(-c2ccc(-c3ccc(C(=O)N[C@H]4C[C@@H](O)[C@@H](O)NC(=O)[C@@H]5[C@@H](O)[C@@H](C)CN5C(=O)[C@H]([C@@H](C)O)NC(=O)[C@H]([C@H](O)[C@@H](O)c5ccc(O)cc5)NC(=O)[C@@H]5C[C@@H](O)CN5C(=O)[C@H]([C@@H](C)O)NC4=O)cc3)cc2)cc1`: the cell viability in assay [1] was 0.913; in assay [2], 0.775.

Turning to `Oc1ccc2c(c1)OC[C@]1(O)Cc3cc(O)c(O)cc3[C@H]21`, the cell viability in assay [1] turned out to be 1.22; in assay [2] it was 0.831.

For `CCNC(=O)CC[C@H](N)C(=O)O`, the cell viability turned out to be 0.86 in assay [1] and 1 in assay [2].

Turning to `CCCCCCCCCCCCCCCCCCCCCC(=O)O`, the cell viability in assay [1] amounted to 1.17; in assay [2] it was 1.

Consider `Nc1ccc(C(=O)O)cc1`, for which the cell viability in assay [1] turned out to be 1.1; in assay [2], 0.971.

For the compound `O=C(O)c1ccc[nH]1`, the cell viability in assay [1] and in assay [2] was 1.01 throughout.

As for `COc1ccc2ccc(=O)oc2c1CC=C(C)C`, the cell viability stood at 0.982 in assay [1] and 1.19 in assay [2].

In the case of `COc1ccc2[nH]cc(CCNC(C)=O)c2c1`, the results for the cell viability in assay [1] and in assay [2] were 1.09 and 0.866, respectively.
